{"source": "patent US20030180306A1", "about": "(Pfizer, published 2003)", "molecules": {"B1": {"name": "GDF-8 propeptide from normal mouse serum (protein, UniProt O08689 25-267, looked up)", "chain": "NEGSEREENVEKEGLCNACAWRQNTRYSRIEAIKIQILSKLRLETAPNISKDAIRQLLPRAPPLRELIDQYDVQRDDSSDGSLEDDDYHATTETIITMPTESDFLMQADGKPKCCFFKFSSKIQYNKVVKAQLWIYLRPVKTPTTVFVQILRLIKPMKDGTRYTGIRSLKLDMSPGTGIWQSIDVKTVLQNWLKQPESNLGIEIKALDENGHDLAVTFPGPGEDGLNPFLEVKVTDTPKRSRR"}, "B2": {"name": "follistatin-like related gene (FLRG) from normal mouse serum (protein, UniProt Q9EQC7 24-256, looked up)", "chain": "VMGSEDSVPGGVCWLQQGREATCSLVLKTRVSREECCASGNINTAWSNFTHPGNKISLLGFLGLVHCLPCKDSCDGVECGPGKACRMLGGRPHCECVPNCEGLPAGFQVCGSDGATYRDECELRTARCRGHPDLRVMYRGRCQKSCAQVVCPRPQSCLVDQTGSAHCVVCRAAPCPVPSNPGQELCGNNNVTYISSCHLRQATCFLGRSIGVRHPGICTGGPKVPAEEEENFV"}, "B3": {"name": "GDF-associated serum protein 1 (GASP1) from normal mouse serum (protein)", "chain": "LPPIRYSHAGICPNDMNPNLWVDAQSTCKRECETDQECETYEKCCPNVCGTKSCVAARYMDVKGKKGPVGMPKEATCDHFMCLQQGSECDIWDGQPVCKCKDRCEKEPSFTCASDGLTYYNRCFMDAEACSKGITLSVVTCRYHFTWPNTSPPPPETTVHPTTASPETLGLDMAAPALLNHPVHQSVTVGETVSFLCDVVGRPRPELTWEKQLEDRENVVMRPNHVRGNVVVTNIAQLVIYNVQPQDAGIYTCTARNVAGVLRADFPLSVVRGGQARATSESSLNGTAFPATECLKPPDSEDCGEEQTRWHFDAQANNCLTFTFGHCHHNLNHFETYEACMLACMSGPLATCSLPALQGPCKAYVPRWAYNSQTGLCQSFVYGGCEGNGNNFESREACEESCPFPRGNQHCRACKPRQKLVTSFCRSDFVILGRVSELTEEQDSGRALVTVDEVLKDEKMGLKFLGREPLEVTLLHVDWTCPCPNVTVGETPLIIMGEVDGGMAMLRPDSFVGASSTRRVRKLREVMYKKTCDVLKDFLGLQ"}, "B4": {"name": "human FLRG from pooled normal human serum (protein, UniProt O95633 27-263, looked up)", "chain": "MGSGNPAPGGVCWLQQGQEATCSLVLQTDVTRAECCASGNIDTAWSNLTHPGNKINLLGFLGLVHCLPCKDSCDGVECGPGKACRMLGGRPRCECAPDCSGLPARLQVCGSDGATYRDECELRAARCRGHPDLSVMYRGRCRKSCEHVVCPRPQSCVVDQTGSAHCVVCRAAPCPVPSSPGQELCGNNNVTYISSCHMRQATCFLGRSIGVRHAGSCAGTPEEPPGGESAEEEENFV"}, "B5": {"name": "mouse GASP1 cloned with a C-terminal V5-His tag (GASP1-V5-His) (other, not shown: small tags and cut ends)", "chain": "B3 chain"}}, "key": {"[1]": {"target": "T1, recombinant purified GDF-8 (UniProt O14793 267-375, limits assumed)", "T1 sequence (looked up)": "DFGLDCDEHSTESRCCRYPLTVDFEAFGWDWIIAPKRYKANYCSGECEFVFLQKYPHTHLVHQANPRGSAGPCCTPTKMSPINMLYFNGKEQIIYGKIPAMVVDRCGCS", "test": "co-immunoprecipitation with JA16-agarose, anti-propeptide western blot"}, "[2]": {"target": "T2, mature GDF-8 from pooled normal human serum (human) (UniProt O14793)", "T2 sequence (looked up)": "T1 sequence (looked up)", "test": "co-purification with GDF-8 on JA16-agarose from human serum, LC-MS/MS"}, "[3]": {"target": "T2, mature GDF-8 from pooled normal human serum (human)", "test": "co-purification with GDF-8 on JA16-agarose from human serum, nanoflow LC-MS/MS"}, "[4]": {"target": "T3, mature GDF-8 from normal mouse serum (mouse) (UniProt O08689)", "T3 sequence (looked up)": "T1 sequence (looked up)", "test": "large scale JA16 immunoprecipitation from mouse serum, nanoflow-LC-MS/MS"}, "[5]": {"target": "T3, mature GDF-8 from normal mouse serum (mouse)", "test": "co-purification with GDF-8 on JA16-agarose from mouse serum, silver stained gel"}, "[6]": {"target": "T3, mature GDF-8 from normal mouse serum (mouse)", "test": "co-purification with GDF-8 on JA16-agarose, MS/MS and western blot"}, "[7]": {"target": "T3, mature GDF-8 from normal mouse serum (mouse)", "test": "co-purification with GDF-8 on JA16-agarose from mouse serum, MS/MS and western blot"}, "[8]": {"target": "T3, mature GDF-8 from normal mouse serum (mouse)", "test": "co-purification with GDF-8 on JA16-agarose from mouse serum, MS/MS against the Celera database"}, "[9]": {"target": "T3, mature GDF-8 from normal mouse serum (mouse)", "test": "co-purification with GDF-8 on JA16-agarose from mouse serum, MS/MS"}, "[10]": {"target": "T3, mature GDF-8 from normal mouse serum (mouse)", "test": "co-purification with GDF-8 on JA16-agarose from serum, MS/MS"}, "[11]": {"target": "T4, recombinant purified GDF-8 propeptide protein (UniProt O14793)", "T4 sequence (looked up)": "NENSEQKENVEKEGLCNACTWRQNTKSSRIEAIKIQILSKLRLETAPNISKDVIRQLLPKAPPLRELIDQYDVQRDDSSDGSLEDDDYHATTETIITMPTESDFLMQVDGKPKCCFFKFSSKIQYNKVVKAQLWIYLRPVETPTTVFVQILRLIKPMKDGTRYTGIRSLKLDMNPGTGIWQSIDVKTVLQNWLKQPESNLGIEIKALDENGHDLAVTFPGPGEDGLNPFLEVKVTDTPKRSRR", "test": "co-immunoprecipitation (JA16 or anti-V5), western blot"}, "[12]": {"target": "T4, recombinant purified GDF-8 propeptide protein", "test": "co-immunoprecipitation with anti-V5 agarose, anti-propeptide western blot"}}, "note": "These are yes or no findings as the source states them, for the method shown. In cells and extracts the contact can be indirect. Some binding calls cover weakened binding; strength is not graded here. For some of these results: Where a sequence is shown, tags or fusion partners need not be part of it."}
{"molecule": "recombinant purified GDF-8 propeptide protein (from UniProt O14793 24-266)", "values": [{"measurement": "binding", "setting": "[1]", "value": "binds"}]}
{"molecule": "GDF-8 propeptide from pooled normal human serum (from UniProt O14793 24-266)", "values": [{"measurement": "binding", "setting": "[2]", "value": "binds"}, {"measurement": "binding", "setting": "[3]", "value": "binds"}]}
{"molecule": "B1", "values": [{"measurement": "binding", "setting": "[4]", "value": "binds"}, {"measurement": "binding", "setting": "[5]", "value": "binds"}, {"measurement": "binding", "setting": "[6]", "value": "binds"}, {"measurement": "binding", "setting": "[7]", "value": "binds"}]}
{"molecule": "B2", "values": [{"measurement": "binding", "setting": "[4]", "value": "binds"}, {"measurement": "binding", "setting": "[5]", "value": "binds"}, {"measurement": "binding", "setting": "[6]", "value": "binds"}, {"measurement": "binding", "setting": "[7]", "value": "binds"}]}
{"molecule": "B3", "values": [{"measurement": "binding", "setting": "[8]", "value": "binds"}, {"measurement": "binding", "setting": "[4]", "value": "binds"}, {"measurement": "binding", "setting": "[9]", "value": "binds"}, {"measurement": "binding", "setting": "[10]", "value": "binds"}]}
{"molecule": "B4", "values": [{"measurement": "binding", "setting": "[2]", "value": "binds"}, {"measurement": "binding", "setting": "[3]", "value": "binds"}]}
{"molecule": "B5", "values": [{"measurement": "binding", "setting": "[11]", "value": "binds"}, {"measurement": "binding", "setting": "[12]", "value": "binds"}]}
